Values from PubChem BioAssay AID504764 (Drosophila RNAi Screening Center, 2011)

- Assay: 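Knock-downs that raise or lower a Notch target reporter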 (primary screen)
- System: Drosophila Kc167 cells
- Knock-down reagent: long dsRNA against Drosophila genes
- Timing: about 5 days (4 days dsRNA, then 24 h after transfection)
- Conditions: transfection of constitutively active membrane-tethered Notch lacking the extracellular domain, read 24 h later
- Measured: 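Firefly luciferase from an E(spl)m3 reporter with active Notch, plus control-promoter and uninduced reporter wells for normalisation; unnormalised counts, duplicate wells a and b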
- Direction: induced reporter light, run 1, well a and induced reporter light, run 1, well b: higher = more light from the Notch target reporter with active Notch; control promoter light, run 1, well a and control promoter light, run 1, well b: higher = more light from the viral control promoter (cell number, transfection, viability); uninduced reporter light, run 1, well a: higher = more light from the Notch target reporter without active Notch
- Rule for the call: 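Wells with low control signal or poorly matching duplicates excluded; duplicates averaged; per source plate, z beyond ±2 for induced/control log2 ratio or beyond ±1.8 for induced/uninduced marks a hit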
- Meaning of the calls: active = modifier hit (raised or lowered Notch signal); inactive = not a hit
In all, the deposit lists about 22,000 reagents; shown is an unselected part of those with a known target gene and a result. In the full data, 403 (1.9%) were called active. 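Unnormalised raw counts per well; ratio z-scores behind the hit calls and whether each hit raises or lowers signal are not deposited.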 A plus sign joins genes that one reagent is predicted to hit. The record does not give: the amount of reagent.

| Target gene | amplicon | induced reporter light, run 1, well a | induced reporter light, run 1, well b | control promoter light, run 1, well a | control promoter light, run 1, well b | uninduced reporter light, run 1, well a | Outcome |
| --- | --- | --- | --- | --- | --- | --- | --- |
| TwdlQ | DRSC14745 | 33595 | 20890 | 26075 | 22392 | 5875 | inactive |
| Tsp33B | DRSC02418 | 1.67e5 | 1.85e5 | 1.02e5 | 1.29e5 | 19780 | inactive |
| CG14397 | DRSC02381 | 43385 | 39545 | 47445 | 55235 | 2680 | inactive |
| Vav | DRSC20384 | 96510 | 94605 | 1.15e5 | 1.24e5 | 11115 | inactive |
| slo | DRSC17057 | 63595 | 79395 | 65570 | 66275 | 7045 | inactive |
| CR31822 | DRSC01510 | 88660 | 77320 | 63820 | 73575 | 6475 | inactive |
| CG5897 | DRSC10555 | 1.30e5 | 1.55e5 | 2.00e5 | 1.48e5 | 7092 | inactive |
| CG5906 | DRSC10557 | 1.18e5 | 1.45e5 | 1.73e5 | 1.36e5 | 7585 | inactive |
| FarO | DRSC18475 | 1.21e5 | 1.05e5 | 1.74e5 | 1.72e5 | 7105 | inactive |
| Jon99Fii | DRSC15430 | 1.17e5 | 1.07e5 | 1.55e5 | 1.38e5 | 8565 | inactive |
| CG42237 | DRSC19891 | 1.02e5 | 1.14e5 | 1.88e5 | 1.24e5 | 7805 | inactive |
| CG13028 | DRSC09908 | 1.73e5 | 1.82e5 | 2.72e5 | 1.62e5 | 10192 | inactive |
| Vsp37A | DRSC18794 | 1.22e5 | 1.51e5 | 2.31e5 | 2.05e5 | 9550 | inactive |
| CG4882 | DRSC04495 | 1.60e5 | 1.63e5 | 1.69e5 | 1.83e5 | 12935 | inactive |
| CG14535 | DRSC02393 | 1.28e5 | 1.68e5 | 1.02e5 | 1.23e5 | 21250 | inactive |
| Nsun5 | DRSC15835 | 1.71e5 | 1.86e5 | 2.10e5 | 2.45e5 | 17930 | inactive |
| CG18371 | DRSC06733 | 85870 | 94950 | 99595 | 1.07e5 | 7530 | inactive |
| CG12869 | DRSC06208 | 90660 | 1.16e5 | 1.57e5 | 1.34e5 | 8805 | inactive |
| scro | DRSC17099 | 67360 | 88475 | 1.20e5 | 1.11e5 | 7120 | inactive |
| scro | DRSC17102 | 1.51e5 | 1.46e5 | 3.40e5 | 2.80e5 | 9520 | inactive |
| Sbat | DRSC00160 | 96495 | 96865 | 1.63e5 | 1.61e5 | 8890 | inactive |
| osi | DRSC02931 | 1.17e5 | 1.57e5 | 1.90e5 | 2.26e5 | 12820 | active |
| CG31102 | DRSC14260 | 1.38e5 | 1.16e5 | 1.66e5 | 1.52e5 | 11670 | inactive |
| CG5080 | DRSC00677 | 2.81e5 | 2.32e5 | 2.75e5 | 3.05e5 | 19570 | inactive |
| CG2201 | DRSC03721 | 2.30e5 | 1.69e5 | 1.60e5 | 1.69e5 | 17030 | inactive |
| CG9673 | DRSC20202 | 1.14e5 | 87810 | 1.33e5 | 1.01e5 | 8405 | inactive |
| Xrp1 | DRSC15282 | 22135 | 19880 | 14638 | 12915 | 4335 | inactive |
| Xrp1 | DRSC15283 | 53150 | 43510 | 87015 | 91210 | 6445 | inactive |
| mge | DRSC08721 | 89210 | 1.07e5 | 1.63e5 | 1.38e5 | 5330 | inactive |
| mRpS10 | DRSC15557 | 2.63e5 | 2.11e5 | 2.18e5 | 2.11e5 | 19180 | inactive |
| CG7099 | DRSC03006 | 4.09e5 | 3.58e5 | 2.57e5 | 2.16e5 | 20630 | active |
| CG5024 | DRSC15698 | 2.14e5 | 2.05e5 | 2.16e5 | 2.18e5 | 17578 | inactive |
| ND-PDSW | DRSC00715 | 1.25e5 | 1.07e5 | 1.14e5 | 1.29e5 | 11010 | inactive |
| CG42594 | DRSC18053 | 6550 | 6685 | 11150 | 11160 | 3765 | inactive |
| CG42594 | DRSC18408 | 1.44e5 | 1.42e5 | 2.95e5 | 2.32e5 | 9760 | inactive |
| Nep3 | DRSC20685 | 82210 | 1.14e5 | 93755 | 1.04e5 | 10950 | inactive |
| Neos | DRSC11235 | 1.05e5 | 93270 | 68375 | 43160 | 13725 | inactive |
| CG4730 | DRSC15633 | 1.97e5 | 1.71e5 | 2.36e5 | 1.75e5 | 12835 | inactive |
| CG2812 | DRSC04319 | 1.95e5 | 1.76e5 | 1.45e5 | 1.62e5 | 12615 | inactive |
| CG5160 | DRSC02821 | 60700 | 55520 | 59305 | 48745 | 3330 | inactive |
| DIP-epsilon | DRSC00932 | 68645 | 69950 | 59170 | 89745 | 6005 | inactive |
| DIP-epsilon | DRSC02313 | 1.81e5 | 1.80e5 | 2.35e5 | 2.40e5 | 12210 | inactive |
| Trf4-2 | DRSC15237 | 1.68e5 | 1.84e5 | 1.91e5 | 1.83e5 | 11830 | inactive |
| Adgf-B | DRSC10568 | 1.86e5 | 1.69e5 | 1.98e5 | 1.92e5 | 7385 | inactive |
| Arf1 | DRSC11606 | 66075 | 64645 | 48260 | 39600 | 4500 | inactive |
| scra | DRSC07679 | 1.67e5 | 2.05e5 | 1.91e5 | 1.85e5 | 15465 | inactive |
| CG31917 + Tfb5 | DRSC02362 | 1.80e5 | 1.51e5 | 2.79e5 | 2.38e5 | 11820 | active |
| CG31917 + Tfb5 | DRSC02363 | 1.38e5 | 1.32e5 | 1.77e5 | 1.59e5 | 6720 | inactive |
| Arp2 | DRSC19332 | 30965 | 30915 | 25560 | 29665 | 2250 | inactive |
| RpS12 | DRSC11270 | 43895 | 37930 | 39905 | 24650 | 5515 | inactive |
